Assay results: US20140080762A1, “HYD1 PEPTIDES FOR RELAPSED CANCER” (H. LEE MOFFITT CANCER CENTER AND RESEARCH INSTITUTE, INC., priority 2011, published 2014)
Entries after “also recorded” stand apart in the source; their conditions may differ. Part of at least one peptide drawing is inferred or uncertain, most often the ends.

By UniProt entry, the sequences of proteins in these tests, tags left out. Residues count along the entry.
UniProt P13612, 34-1032: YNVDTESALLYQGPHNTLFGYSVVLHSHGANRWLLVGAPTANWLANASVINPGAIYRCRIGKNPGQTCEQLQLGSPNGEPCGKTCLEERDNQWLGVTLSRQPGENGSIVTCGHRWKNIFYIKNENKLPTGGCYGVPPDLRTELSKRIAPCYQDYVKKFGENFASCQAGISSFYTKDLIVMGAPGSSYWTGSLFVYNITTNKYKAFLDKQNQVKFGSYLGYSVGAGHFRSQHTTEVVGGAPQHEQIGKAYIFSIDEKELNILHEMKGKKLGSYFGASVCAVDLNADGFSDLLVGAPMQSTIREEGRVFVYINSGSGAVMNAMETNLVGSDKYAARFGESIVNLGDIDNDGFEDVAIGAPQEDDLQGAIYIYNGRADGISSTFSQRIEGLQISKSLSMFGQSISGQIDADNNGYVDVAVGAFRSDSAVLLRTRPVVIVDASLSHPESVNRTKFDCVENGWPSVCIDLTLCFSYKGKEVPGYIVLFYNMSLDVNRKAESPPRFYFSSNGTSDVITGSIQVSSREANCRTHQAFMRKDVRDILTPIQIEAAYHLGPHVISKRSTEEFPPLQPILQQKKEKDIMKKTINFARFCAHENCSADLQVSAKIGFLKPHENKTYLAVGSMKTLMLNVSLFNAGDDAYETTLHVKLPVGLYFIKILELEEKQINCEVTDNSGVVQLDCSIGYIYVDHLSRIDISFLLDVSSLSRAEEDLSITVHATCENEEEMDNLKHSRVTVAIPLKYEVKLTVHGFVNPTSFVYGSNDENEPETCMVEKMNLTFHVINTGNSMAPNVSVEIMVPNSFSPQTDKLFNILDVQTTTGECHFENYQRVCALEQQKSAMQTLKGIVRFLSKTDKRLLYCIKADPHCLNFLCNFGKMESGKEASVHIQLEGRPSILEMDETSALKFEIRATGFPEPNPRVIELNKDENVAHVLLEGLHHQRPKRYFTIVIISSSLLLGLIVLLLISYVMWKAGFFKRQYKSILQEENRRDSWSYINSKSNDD
UniProt P16070, 21-742: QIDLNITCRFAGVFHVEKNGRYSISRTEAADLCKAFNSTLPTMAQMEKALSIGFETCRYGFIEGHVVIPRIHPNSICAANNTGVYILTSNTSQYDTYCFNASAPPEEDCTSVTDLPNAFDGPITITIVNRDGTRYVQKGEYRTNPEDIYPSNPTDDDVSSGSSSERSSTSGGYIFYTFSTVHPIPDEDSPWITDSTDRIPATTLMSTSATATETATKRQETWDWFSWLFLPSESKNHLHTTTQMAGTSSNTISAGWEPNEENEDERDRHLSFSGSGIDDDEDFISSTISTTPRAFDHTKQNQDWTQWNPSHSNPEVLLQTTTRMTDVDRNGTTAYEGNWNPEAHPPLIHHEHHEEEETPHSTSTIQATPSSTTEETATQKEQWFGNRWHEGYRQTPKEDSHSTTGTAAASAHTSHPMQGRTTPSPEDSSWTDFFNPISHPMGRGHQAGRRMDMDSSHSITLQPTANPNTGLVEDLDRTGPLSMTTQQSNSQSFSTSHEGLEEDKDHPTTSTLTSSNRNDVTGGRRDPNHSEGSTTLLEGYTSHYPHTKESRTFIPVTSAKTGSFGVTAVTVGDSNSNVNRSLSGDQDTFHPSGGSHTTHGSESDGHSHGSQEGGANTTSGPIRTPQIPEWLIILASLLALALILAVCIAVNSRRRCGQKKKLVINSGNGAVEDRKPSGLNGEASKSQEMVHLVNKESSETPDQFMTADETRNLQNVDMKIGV

Tests used:
MM cells [1] = experiment: ATP measurement, MM cells; type: cell-based; conditions: MM cells (Nair et al. 2009)
H929 cells [2] = experiment: HYD1 induced cell death, Topro-3 staining and FACS, H929 cells; type: cell-based, human; conditions: 50 μg/ml HYD1, 6 hours
H929 engrafted tumor = experiment: SCID-hu in vivo model, H929 engrafted tumor; conditions: 8 mg/kg i.p. daily for 21 days starting on day 28; p<0.05 vs control
Method: The SCID-hu model consists of implanting human fetal bone into the mammary mouse fat pad of SCID mice. The myeloma cells are subsequently injected directly into the bone and myeloma cells will engraft only in the area of the human bone. Human paraprotein can be measured in the mouse sera and levels represent a good marker for evaluating tumor burden and response to chemotherapy. Circulating kappa levels were measured on day 28 (baseline reading before peptide treatment), 35, 42 and 49 by ELISA, and tumor burden was determined by calculating the kappa levels on day X divided by the baseline kappa levels recorded on day 28 for each mouse. Shown in FIG. 2A is the antitumor response of H929 engrafted tumor when mice were given 8 mg/kg intraperitoneal (i.p.) injections daily for 21 days starting on day 28. […] Mice were humanely euthanized at […] as several control mice had tumor protruding from the bone implant. […] The inventors anticipate that because HYD1 induces cell death independent of apoptosis and blocks cell adhesion mediated drug resistance to standard therapy that the most dramatic in vivo activity will be realized when combined with standard therapy.

MM cells [3] = experiment: Co-culture bone marrow stroma model of drug resistance, MM cells; type: cell-based
[4] = tested on: epithelial prostate carcinoma cells; conditions: cited from earlier work
H929-60 cells [5] = experiment: HYD1 induced cell death, Topro-3 staining and FACS, H929-60 resistant cells; type: cell-based, human; conditions: 6 hours, Topro-3, FACS; p<0.05 ANOVA
H929-60 cells [6] = experiment: ROS production, H929-60 cells; type: cell-based, human; conditions: 50 μg/ml HYD1; 0, 30, 60 and 120 minutes
MM cell lines = experiment: Induction of cell death in MM cell lines; type: cell-based
H929-60 cells [7] = experiment: ATP measurement, H929-60 cells; type: cell-based, human; conditions: 6 hours of HYD1 (50 ug/ml)
H929 cells [8] = experiment: Colony formation of H929 cells; type: cell-based, human; conditions: 12.5-50 ug/ml HYD1
8226 cells = experiment: HYD1 induced cell death, Topro-3 staining and FACS, 8226 cells; type: cell-based, human
U226 cells = experiment: HYD1 induced cell death in U226 cells; type: cell-based
[9] = target: T1, α4 integrin and CD44 complex (Homo sapiens, UniProt P13612+P16070); experiment: Membrane immunoprecipitation of α4 integrin/CD44 complex with and without HYD1; type: binding; conditions: Western Blot
T1 construct: membrane immunoprecipitation assays were performed using CD44 and Integrin α4 mAbs; endogenous in cells; not repeated in the IP sentence

MM cells [10] = experiment: Characterisation of HYD1-induced cell death in MM cells (apoptosis markers, autophagy, NAC protection); type: cell-based
MM cells [11] = experiment: Measurement of mitochondrial membrane potential, MM cells; type: cell-based; conditions: MM cells (Nair et al. 2009)
[12] = tested on: CD138 positive myeloma cells; experiment: HYD1 induced cell death in primary myeloma patient specimens (CD138 sorted); type: cell-based, human; conditions: 100 ug/ml HYD1 for 24 hours
5TGM1 cells = experiment: Cell death in 5TGM1 mouse myeloma cell line; type: cell-based
MM1.S cells = experiment: HYD1 induced cell death in MM1.S cells; type: cell-based
a4β1 = a4β1 (Homo sapiens, UniProt P05556+P13612); experiment: a4β1 mediated adhesion of MM cells to fibronectin; type: cell-based
H929-60 cells [13] = experiment: Measurement of mitochondrial membrane potential (DiOC6), H929-60 cells; type: cell-based, human; conditions: 2 hours of HYD1 treatment
MM cells [14] = experiment: ROS production, MM cells; type: cell-based; conditions: MM cells (Nair et al. 2009)

CC[C@@H](C)[C@@H](NC(=O)[C@H](N)CCCCN)C(=O)N[C@H](CCCCN)C(=O)N[C@H](CCSC)C(=O)N[C@@H](C(=O)N[C@@H](C(=O)N[C@H](CO)C(=O)N[C@H](Cc1c[nH]c2ccccc12)C(=O)N[C@H](CCCCN)C(=O)NCC(=O)O)[C@H](C)CC)C(C)C [HYD1]
total cellular ATP (MM cells [1]): a loss of total cellular ATP
HYD1 induced cell death after reducing α4 integrin (shRNA), H929 (H929 cells [2]): partially blocked; also recorded: conferred resistance; also recorded: induced resistance; also recorded: partial resistance
HYD1 induced cell death after reducing β1 integrin (shRNA), H929 (H929 cells [2]): resistant; also recorded: partial resistance
tumor burden (circulating kappa levels relative to day 28 baseline) (H929 engrafted tumor): reduction in tumor burden; also recorded: in vivo anti-tumor activity
resistance to HYD1 treatment conferred by co-culture (MM cells [3]): not found to confer resistance
effect of HYD1 on melphalan induced cell death (MM cells [3]; suspension and co-culture models): potentiated
inhibition of cell adhesion to extracellular matrixes (laminin 5, laminin 332, collagen, fibronectin) [4]: inhibit integrin dependent binding
HYD1 induced cell death, H929-60 compared to parental H929 (H929-60 cells [5]): significantly resistant
HYD1 induced ROS levels, H929-60 compared to H929 (H929-60 cells [6]): reduced; also recorded: decreased
induction of cell death in MM cell lines (MM cell lines): induces necrotic cell death
ATP levels following HYD1 treatment, H929-60 (H929-60 cells [7]): failed to show a reduction in ATP levels
colony formation of H929 cells (H929 cells [8]): did inhibit colony formation
cell death in 8226 cells (8226 cells): induced cell death
HYD1 induced cell death after reducing α4 integrin (shRNA), 8226 (8226 cells; 100 ug/ml HYD1, 6 hours): partially blocked; also recorded: conferred resistance; also recorded: induced resistance; also recorded: partial resistance
HYD1 induced cell death after reducing β1 integrin (shRNA), 8226 (8226 cells; 100 ug/ml HYD1, 6 hours): resistant; also recorded: partial resistance
cell death in U226 cells (U226 cells): induced cell death
complex between α4 integrin and CD44 in the presence of HYD1 [9]: significantly enhanced
activation of caspases (MM cells [10]): did not trigger
autophagy (MM cells [10]): did initiate autophagy
double-stranded DNA breaks (MM cells [10]): nor did it induce double-stranded DNA breaks
release of AIF and Endo G from the mitochondria (MM cells [10]): did not trigger
mitochondrial membrane potential (Δψm) (MM cells [11]): a decrease in mitochondrial membrane potential
HYD1 induced cell death, CD138 positive compared to CD138 negative population [12]: more sensitive
correlation of HYD1 induced cell death with α4 integrin / CD44 expression ([12]; primary specimens): correlated with the expression of α4 integrin and CD44; also recorded: positively correlates with α4 integrin expression; also recorded: correlated with sensitivity; also recorded: correlates with increased CD44 and a4 integrin expression
HYD1 induced cell death, relapsed compared to newly diagnosed specimens ([12]; CD138+ cells, p<0.05): more active in relapsed refractory patients; also recorded: increased
cell death in 5TGM1 cells (5TGM1 cells): does induce cell death; also recorded: anti-tumor activity
cell death in MM1.S cells (MM1.S cells): induced cell death
a4β1 mediated adhesion of MM cells to fibronectin (a4β1): blocks
loss of mitochondrial membrane potential, H929-60 (H929-60 cells [13]): resistant to the loss of mitochondrial membrane potential
reactive oxygen species (ROS) production (MM cells [14]): an increase in reactive oxygen species (ROS) production
